{
  "source": "the supplement of paper PMC3334620",
  "note": "Whole data set: some 33,000 sequences, median “E-score (-0.5 to 0.5)” near -0.0014, cut for the highest 2% near 0.25. This is one part of the list.",
  "data": [
    {"biological_target": "T1, Cad1 (UniProt P24813)", "T1 sequence": "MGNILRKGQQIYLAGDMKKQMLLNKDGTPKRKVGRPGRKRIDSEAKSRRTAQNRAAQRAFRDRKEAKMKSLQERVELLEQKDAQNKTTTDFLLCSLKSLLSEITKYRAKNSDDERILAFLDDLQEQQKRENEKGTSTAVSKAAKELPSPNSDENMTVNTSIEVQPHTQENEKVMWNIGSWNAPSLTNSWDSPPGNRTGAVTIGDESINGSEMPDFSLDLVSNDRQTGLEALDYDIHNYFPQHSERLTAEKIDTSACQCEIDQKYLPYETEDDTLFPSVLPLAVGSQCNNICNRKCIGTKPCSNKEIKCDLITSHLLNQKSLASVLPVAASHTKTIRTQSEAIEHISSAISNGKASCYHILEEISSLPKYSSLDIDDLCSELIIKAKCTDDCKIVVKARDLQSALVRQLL", "assay": "PBM E-score (8-mer binding enrichment) (E-score (-0.5 to 0.5)); higher = stronger / more preferred TF binding", "conditions": "protein concentration: 100 nM; construct: GST-full length", "summary_of_the_method": "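GST-tagged yeast TFs (full-length or DNA-binding domain) were made by PURExpress in vitro transcription/translation and applied at about 100-200 nM to universal all-10-mer Agilent arrays. The arrays were made double-stranded by primer extension, on fresh or once-stripped slides. Bound protein was detected with fluorescent anti-GST, and scans were normalised with masliner. Each ungapped eight-base word, pooled with its reverse complement, received an E-score (modified Wilcoxon-Mann-Whitney statistic) from the Universal PBM Analysis Suite.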", "values": [
      {"sequence": "ACTTCCCA", "PBM E-score": 0.0729},
      {"sequence": "CCGGATAG", "PBM E-score": 0.11},
      {"sequence": "AATGCAGC", "PBM E-score": -0.0739},
      {"sequence": "GGGGCATA", "PBM E-score": -0.0869},
      {"sequence": "ACCAAAAG", "PBM E-score": 0.0026},
      {"sequence": "AGGCTGCG", "PBM E-score": 0.00153},
      {"sequence": "CCTGGGCC", "PBM E-score": -0.213},
      {"sequence": "TAATTTCA", "PBM E-score": 0.214},
      {"sequence": "ACCGAGTG", "PBM E-score": -0.161},
      {"sequence": "TCATAAGA", "PBM E-score": 0.0067},
      {"sequence": "CGCGGTAC", "PBM E-score": 0.109},
      {"sequence": "TACATCCA", "PBM E-score": 0.0733},
      {"sequence": "AGTATTCA", "PBM E-score": -0.0483},
      {"sequence": "TCATCCCA", "PBM E-score": -0.186},
      {"sequence": "GACTCTAA", "PBM E-score": -0.118},
      {"sequence": "CCAGTAAA", "PBM E-score": -0.0575},
      {"sequence": "AATTTGGA", "PBM E-score": 0.0914},
      {"sequence": "CAAAGTAA", "PBM E-score": -0.00082},
      {"sequence": "ACCCTTCG", "PBM E-score": -0.135},
      {"sequence": "ACTTCAAA", "PBM E-score": -0.0429},
      {"sequence": "CCATCCGG", "PBM E-score": -0.22},
      {"sequence": "CGATATAA", "PBM E-score": 0.113},
      {"sequence": "AGAATTGG", "PBM E-score": -0.0492},
      {"sequence": "CCGGAAAA", "PBM E-score": 0.215},
      {"sequence": "ACCAATGC", "PBM E-score": 0.116},
      {"sequence": "GTAGGCAC", "PBM E-score": -0.143},
      {"sequence": "CTACACAG", "PBM E-score": -0.0206},
      {"sequence": "ACTTTCGG", "PBM E-score": -0.0839},
      {"sequence": "AACGATTC", "PBM E-score": 0.12},
      {"sequence": "CAAGTCGG", "PBM E-score": 0.0513},
      {"sequence": "CCGTAACA", "PBM E-score": -0.00304},
      {"sequence": "CGGCTGGC", "PBM E-score": -0.141},
      {"sequence": "AGCATTTG", "PBM E-score": 0.17},
      {"sequence": "AAAGAAGG", "PBM E-score": -0.166},
      {"sequence": "GCGAAAGC", "PBM E-score": -0.0648},
      {"sequence": "AGTACAGG", "PBM E-score": 0.141},
      {"sequence": "ATAATGTC", "PBM E-score": 0.157},
      {"sequence": "AATCAAGT", "PBM E-score": 0.0792},
      {"sequence": "AACTATGT", "PBM E-score": 0.09},
      {"sequence": "ACTAGAAT", "PBM E-score": 0.0557},
      {"sequence": "CCGGGGAG", "PBM E-score": -0.0528},
      {"sequence": "ACCAGGGA", "PBM E-score": -0.216},
      {"sequence": "ACTTCCAA", "PBM E-score": -0.0238},
      {"sequence": "ATGCACAT", "PBM E-score": 0.0489},
      {"sequence": "ATGTAAGA", "PBM E-score": 0.227},
      {"sequence": "ACACGACG", "PBM E-score": 0.169},
      {"sequence": "GTGACTCA", "PBM E-score": -0.0941},
      {"sequence": "ACCACCTG", "PBM E-score": -0.0241},
      {"sequence": "GCAGTCAC", "PBM E-score": 0.0645},
      {"sequence": "CAAACCGC", "PBM E-score": -0.0417},
      {"sequence": "ACGCGCAA", "PBM E-score": 0.206},
      {"sequence": "AAGGGCTC", "PBM E-score": -0.164},
      {"sequence": "CGATGCCA", "PBM E-score": -0.133},
      {"sequence": "CACTCATA", "PBM E-score": 0.0535},
      {"sequence": "AATTGTTG", "PBM E-score": -0.0461},
      {"sequence": "GATAAAGA", "PBM E-score": -0.0858},
      {"sequence": "ACAGATTG", "PBM E-score": -0.0204},
      {"sequence": "CGGGGTGC", "PBM E-score": -0.142},
      {"sequence": "AAACTGCT", "PBM E-score": -0.0842},
      {"sequence": "CCTGCTTA", "PBM E-score": 0.0731},
      {"sequence": "GAGATGTA", "PBM E-score": -0.00719},
      {"sequence": "CTGCTGTA", "PBM E-score": -0.0378},
      {"sequence": "GAAGAAGA", "PBM E-score": -0.0562},
      {"sequence": "ATCCCCTC", "PBM E-score": -0.154},
      {"sequence": "CGTACGAA", "PBM E-score": 0.0708},
      {"sequence": "CTTGTTAA", "PBM E-score": -0.0916},
      {"sequence": "AACTGCCT", "PBM E-score": 0.0149},
      {"sequence": "AAACTGTC", "PBM E-score": -0.0464},
      {"sequence": "CTCTTCAA", "PBM E-score": -0.221},
      {"sequence": "ACGAACTA", "PBM E-score": 0.143},
      {"sequence": "TCGGTCCA", "PBM E-score": -0.0769},
      {"sequence": "ATGGCGAC", "PBM E-score": -0.083},
      {"sequence": "GTACTGTA", "PBM E-score": -0.187},
      {"sequence": "ACTAATAG", "PBM E-score": 0.325},
      {"sequence": "AAACTGAC", "PBM E-score": -0.0422},
      {"sequence": "GATTTTCC", "PBM E-score": 0.0663},
      {"sequence": "AAACACAG", "PBM E-score": 0.188},
      {"sequence": "CCCGTTAC", "PBM E-score": -0.0424},
      {"sequence": "TCGTCAAA", "PBM E-score": 0.106},
      {"sequence": "AAGCTCCG", "PBM E-score": -0.059},
      {"sequence": "AGCGAAGA", "PBM E-score": -0.118},
      {"sequence": "CTACGGTA", "PBM E-score": -0.0445},
      {"sequence": "CTTTAACA", "PBM E-score": 0.0123},
      {"sequence": "GTTAATTA", "PBM E-score": 0.23},
      {"sequence": "AGAGTGAT", "PBM E-score": 0.0957},
      {"sequence": "CGCGGCGA", "PBM E-score": 0.166}
    ]}
  ]
}
